Positions count from the first letter of the chain named. No constants are given. Whether binding was seen depends on the method and setting. Binding seen in cells or lysates may run through a third protein. Some entries that bind do so weakly or less than the wild type. Where a sequence is shown, tags or fusion partners need not be part of it.
What was measured:
Experiment in all cases: co-IP; GFP-RAB11A and Myc-WDR44 wild-type or variant coexpressed in 293T for 48 h; Myc-tagged proteins immunoprecipitated from lysate (150 mM NaCl, 20 mM Tris HCl pH 8.0, 10% glycerol, 1% Triton X-100; Protein G Sepharose), blots probed for GFP and Myc; also done after 3 h and 24 h serum starvation (wild-type, G782C, S764F)
[1] = biological target: T1, Myc-tagged WDR44 wild-type (human) (UniProt Q5JSH3)
T1 sequence: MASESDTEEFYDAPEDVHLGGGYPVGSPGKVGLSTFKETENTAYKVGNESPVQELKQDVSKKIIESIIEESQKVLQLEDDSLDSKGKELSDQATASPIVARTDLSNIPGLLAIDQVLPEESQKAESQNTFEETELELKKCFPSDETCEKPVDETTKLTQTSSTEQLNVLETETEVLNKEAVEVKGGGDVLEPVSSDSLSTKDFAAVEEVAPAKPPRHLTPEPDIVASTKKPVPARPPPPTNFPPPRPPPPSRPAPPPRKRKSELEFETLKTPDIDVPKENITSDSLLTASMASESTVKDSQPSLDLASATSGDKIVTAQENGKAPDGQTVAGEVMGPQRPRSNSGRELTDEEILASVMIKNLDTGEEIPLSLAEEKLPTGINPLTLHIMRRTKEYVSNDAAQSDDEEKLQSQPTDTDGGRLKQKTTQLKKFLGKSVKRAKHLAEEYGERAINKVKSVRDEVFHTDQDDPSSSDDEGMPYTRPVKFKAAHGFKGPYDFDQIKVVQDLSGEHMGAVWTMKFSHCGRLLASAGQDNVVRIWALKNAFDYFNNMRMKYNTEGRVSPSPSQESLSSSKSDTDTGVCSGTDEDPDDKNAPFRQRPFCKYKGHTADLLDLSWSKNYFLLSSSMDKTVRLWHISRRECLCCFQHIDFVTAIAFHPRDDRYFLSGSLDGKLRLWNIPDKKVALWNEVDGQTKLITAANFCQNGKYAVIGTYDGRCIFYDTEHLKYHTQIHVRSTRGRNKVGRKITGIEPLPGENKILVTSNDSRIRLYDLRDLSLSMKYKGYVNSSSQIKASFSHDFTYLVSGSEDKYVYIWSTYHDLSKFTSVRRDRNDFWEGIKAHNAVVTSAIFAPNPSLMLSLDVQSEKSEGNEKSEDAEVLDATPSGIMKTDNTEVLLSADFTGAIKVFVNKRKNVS

By UniProt entry, the sequences of proteins in these tests, tags left out.
UniProt P62491: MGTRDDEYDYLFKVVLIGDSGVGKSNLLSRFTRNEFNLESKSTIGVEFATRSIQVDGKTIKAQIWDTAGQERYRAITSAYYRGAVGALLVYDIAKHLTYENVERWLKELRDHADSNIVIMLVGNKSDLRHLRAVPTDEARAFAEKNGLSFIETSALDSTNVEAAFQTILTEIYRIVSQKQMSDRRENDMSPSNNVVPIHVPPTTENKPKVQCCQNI

[2] = biological target: T2, Myc-tagged WDR44 H839R (human) (UniProt Q5JSH3)
T2 sequence: T1 sequence with H839R

[3] = biological target: T3, Myc-tagged WDR44 R733* (human) (UniProt Q5JSH3)
T3 sequence: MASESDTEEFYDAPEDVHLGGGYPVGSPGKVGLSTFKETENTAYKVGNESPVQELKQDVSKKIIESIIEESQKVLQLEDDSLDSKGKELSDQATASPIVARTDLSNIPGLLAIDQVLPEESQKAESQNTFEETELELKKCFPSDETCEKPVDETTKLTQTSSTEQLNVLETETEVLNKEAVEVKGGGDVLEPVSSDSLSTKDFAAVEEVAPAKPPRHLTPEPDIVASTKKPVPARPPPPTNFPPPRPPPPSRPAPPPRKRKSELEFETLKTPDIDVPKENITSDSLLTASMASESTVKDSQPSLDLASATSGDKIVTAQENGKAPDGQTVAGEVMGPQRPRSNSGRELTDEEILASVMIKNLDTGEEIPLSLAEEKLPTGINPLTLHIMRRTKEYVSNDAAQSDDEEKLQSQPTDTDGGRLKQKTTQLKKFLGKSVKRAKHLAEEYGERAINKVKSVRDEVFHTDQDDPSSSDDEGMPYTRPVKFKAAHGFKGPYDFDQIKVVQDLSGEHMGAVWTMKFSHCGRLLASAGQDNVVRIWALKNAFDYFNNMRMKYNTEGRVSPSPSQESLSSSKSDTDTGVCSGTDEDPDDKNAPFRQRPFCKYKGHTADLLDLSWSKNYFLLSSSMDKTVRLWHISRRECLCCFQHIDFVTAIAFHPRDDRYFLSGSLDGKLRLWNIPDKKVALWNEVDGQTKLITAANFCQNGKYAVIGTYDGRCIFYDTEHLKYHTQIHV

binding [1]: binds
binding [2]: binds
binding [3]: binds
Substance: GFP-tagged RAB11A (from UniProt P62491 1-216)

From PMC10774338
